Results taken from doi:10.1101/2024.10.03.616509.
Results are given in words; binding and its absence hold for the method and conditions named. Some binding calls cover weakened binding; strength is not graded here.

Legend:
Assay in all cases: two-hybrid
Vps11 = target: T1, Vps11 (UniProt Q9H270)
T1 sequence: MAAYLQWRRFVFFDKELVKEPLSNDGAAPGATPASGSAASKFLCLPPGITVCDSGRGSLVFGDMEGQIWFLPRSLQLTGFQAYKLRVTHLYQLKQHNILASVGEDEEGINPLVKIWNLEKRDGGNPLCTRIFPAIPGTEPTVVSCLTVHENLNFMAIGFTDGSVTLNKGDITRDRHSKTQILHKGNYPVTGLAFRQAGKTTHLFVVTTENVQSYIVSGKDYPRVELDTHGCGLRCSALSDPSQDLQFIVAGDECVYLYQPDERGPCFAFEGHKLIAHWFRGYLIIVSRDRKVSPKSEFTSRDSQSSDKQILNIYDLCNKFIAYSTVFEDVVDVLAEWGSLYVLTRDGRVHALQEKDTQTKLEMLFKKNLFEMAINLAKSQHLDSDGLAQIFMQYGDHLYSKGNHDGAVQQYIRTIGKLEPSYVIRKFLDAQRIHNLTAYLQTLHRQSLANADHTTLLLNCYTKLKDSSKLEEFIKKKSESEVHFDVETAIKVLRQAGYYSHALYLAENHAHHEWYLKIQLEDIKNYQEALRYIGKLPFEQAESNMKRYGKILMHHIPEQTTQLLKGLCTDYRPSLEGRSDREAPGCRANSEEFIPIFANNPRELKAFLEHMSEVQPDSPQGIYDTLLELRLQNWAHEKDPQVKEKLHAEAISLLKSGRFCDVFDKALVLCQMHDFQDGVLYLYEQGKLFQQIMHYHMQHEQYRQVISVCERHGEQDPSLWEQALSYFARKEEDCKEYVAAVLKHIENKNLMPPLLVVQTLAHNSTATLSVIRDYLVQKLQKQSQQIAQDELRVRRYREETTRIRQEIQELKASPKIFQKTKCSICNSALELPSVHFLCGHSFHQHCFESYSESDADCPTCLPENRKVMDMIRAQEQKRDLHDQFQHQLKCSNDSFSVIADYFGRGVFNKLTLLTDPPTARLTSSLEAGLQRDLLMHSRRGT

Vps33a = target: T2, Vps33a (UniProt Q96AX1)
T2 sequence: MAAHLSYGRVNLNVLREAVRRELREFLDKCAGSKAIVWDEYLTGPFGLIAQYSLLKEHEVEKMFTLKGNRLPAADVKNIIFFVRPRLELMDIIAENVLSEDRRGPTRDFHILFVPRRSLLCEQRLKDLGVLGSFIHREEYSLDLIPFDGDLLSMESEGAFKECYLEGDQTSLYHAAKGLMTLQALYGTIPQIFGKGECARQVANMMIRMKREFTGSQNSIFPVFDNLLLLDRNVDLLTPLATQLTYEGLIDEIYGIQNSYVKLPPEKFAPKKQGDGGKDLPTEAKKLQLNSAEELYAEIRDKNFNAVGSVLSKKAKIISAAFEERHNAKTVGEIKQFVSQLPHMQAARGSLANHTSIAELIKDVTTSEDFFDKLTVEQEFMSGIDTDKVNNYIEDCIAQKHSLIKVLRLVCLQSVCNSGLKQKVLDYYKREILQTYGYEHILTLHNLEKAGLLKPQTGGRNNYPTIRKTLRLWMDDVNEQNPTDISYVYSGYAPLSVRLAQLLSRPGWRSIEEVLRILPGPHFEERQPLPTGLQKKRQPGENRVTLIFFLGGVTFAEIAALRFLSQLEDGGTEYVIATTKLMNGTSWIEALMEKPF

Vps41 = target: T3, Vps41 (UniProt P49754)
T3 sequence: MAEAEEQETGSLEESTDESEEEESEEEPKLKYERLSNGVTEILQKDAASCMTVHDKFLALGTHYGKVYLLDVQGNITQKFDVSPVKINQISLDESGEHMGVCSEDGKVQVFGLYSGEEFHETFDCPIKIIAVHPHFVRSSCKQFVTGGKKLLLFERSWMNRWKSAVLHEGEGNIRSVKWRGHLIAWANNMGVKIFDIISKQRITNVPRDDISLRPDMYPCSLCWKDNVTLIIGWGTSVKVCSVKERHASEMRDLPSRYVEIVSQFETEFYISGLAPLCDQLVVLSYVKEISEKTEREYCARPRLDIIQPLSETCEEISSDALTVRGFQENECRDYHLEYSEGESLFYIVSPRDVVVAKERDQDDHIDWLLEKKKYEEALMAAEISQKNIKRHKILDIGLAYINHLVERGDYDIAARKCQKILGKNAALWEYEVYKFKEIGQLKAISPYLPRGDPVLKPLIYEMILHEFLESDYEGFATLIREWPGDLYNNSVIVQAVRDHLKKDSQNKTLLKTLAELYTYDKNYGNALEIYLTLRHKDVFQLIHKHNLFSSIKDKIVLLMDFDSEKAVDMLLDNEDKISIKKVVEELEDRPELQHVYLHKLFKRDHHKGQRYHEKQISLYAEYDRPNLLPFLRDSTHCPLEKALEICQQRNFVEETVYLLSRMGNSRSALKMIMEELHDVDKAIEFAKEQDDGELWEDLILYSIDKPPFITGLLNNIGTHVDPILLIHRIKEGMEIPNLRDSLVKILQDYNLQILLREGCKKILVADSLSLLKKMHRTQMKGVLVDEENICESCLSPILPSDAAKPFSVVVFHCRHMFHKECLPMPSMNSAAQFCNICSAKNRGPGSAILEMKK

binding (Vps11): binds weakly | binding (Vps33a): binds | binding (Vps41): binds
B1: TECPR2 (WT) (protein, UniProt O15040 1-1411)
chain: MASISEPVTFREFCPLYYLLNAIPTKIQKGFRSIVVYLTALDTNGDYIAVGSSIGMLYLYCRHLNQMRKYNFEGKTESITVVKLLSCFDDLVAAGTASGRVAVFQLVSSLPGRNKQLRRFDVTGIHKNSITALAWSPNGMKLFSGDDKGKIVYSSLDLDQGLCNSQLVLEEPSSIVQLDYSQKVLLVSTLQRSLLFYTEEKSVRQIGTQPRKSTGKFGACFIPGLCKQSDLTLYASRPGLRLWKADVHGTVQATFILKDAFAGGVKPFELHPRLESPNSGSCSLPERHLGLVSCFFQEGWVLSWNEYSIYLLDTVNQATVAGLEGSGDIVSVSCTENEIFFLKGDRNIIRISSRPEGLTSTVRDGLEMSGCSERVHVQQAEKLPGATVSETRLRGSSMASSVASEPRSRSSSLNSTDSGSGLLPPGLQATPELGKGSQPLSQRFNAISSEDFDQELVVKPIKVKRKKKKKKTEGGSRSTCHSSLESTPCSEFPGDSPQSLNTDLLSMTSSVLGSSVDQLSAESPDQESSFNGEVNGVPQENTDPETFNVLEVSGSMPDSLAEEDDIRTEMPHCHHAHGRELLNGAREDVGGSDVTGLGDEPCPADDGPNSTQLPFQEQDSSPGAHDGEDIQPIGPQSTFCEVPLLNSLTVPSSLSWAPSAEQWLPGTRADEGSPVEPSQEQDILTSMEASGHLSTNLWHAVTDDDTGQKEIPISERVLGSVGGQLTPVSALAASTHKPWLEQPPRDQTLTSSDEEDIYAHGLPSSSSETSVTELGPSCSQQDLSRLGAEDAGLLKPDQFAESWMGYSGPGYGILSLVVSEKYIWCLDYKGGLFCSALPGAGLRWQKFEDAVQQVAVSPSGALLWKIEQKSNRAFACGKVTIKGKRHWYEALPQAVFVALSDDTAWIIRTSGDLYLQTGLSVDRPCARAVKVDCPYPLSQITARNNVVWALTEQRALLYREGVSSFCPEGEQWKCDIVSERQALEPVCITLGDQQTLWALDIHGNLWFRTGIISKKPQGDDDHWWQVSITDYVVFDQCSLFQTIIHATHSVATAAQAPVEKVADKLRMAFWSQQLQCQPSLLGVNNSGVWISSGKNEFHVAKGSLIGTYWNHVVPRGTASATKWAFVLASAAPTKEGSFLWLCQSSKDLCSVSAQSAQSRPSTVQLPPEAEMRAYAACQDALWALDSLGQVFIRTLSKSCPTGMHWTRLDLSQLGAVKLTSLACGNQHIWACDSRGGVYFRVGTQPLNPSLMLPAWIMIEPPVQPAGVSLVSVHSSPNDQMLWVLDSRWNVHVRTGITEEMPVGTAWEHVPGLQACQLALSTRTVWARCPNGDLARRYGVTDKNPAGDYWKKIPGSVSCFTVTASDELWAVGPPGYLLQRLTKTFSHSHGTQKSSQAAMPHPEDLEDEWEVI
